No constants are given. Whether binding was seen depends on the method and setting. In cells and extracts the contact can be indirect. Some entries that bind do so weakly or less than the wild type. For some assays here: Tags and fused reporters may be left off the sequences shown.
How the values were obtained:
Test in all cases: pull-down; GST-hORF and FLAG-Hoxa1 co-expressed in COS7 or HEK293T; cleared lysate (Tris-HCl pH7.5 20mM, NaCl 120mM, EDTA 0.5mM, NP40 0.5%, glycerol 10%) overnight on glutathione-agarose beads, 3 washes; anti-FLAG western blot
[1] = biological target: T1, keratin associated protein 4-12 (human) (UniProt Q9BQ66)
T1 sequence: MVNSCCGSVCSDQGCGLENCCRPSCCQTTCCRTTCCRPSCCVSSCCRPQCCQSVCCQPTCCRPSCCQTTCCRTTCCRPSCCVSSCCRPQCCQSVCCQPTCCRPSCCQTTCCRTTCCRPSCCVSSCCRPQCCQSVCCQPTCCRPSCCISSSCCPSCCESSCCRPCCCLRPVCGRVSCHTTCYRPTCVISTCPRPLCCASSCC

Sequences of proteins named here, by UniProt entry; tags and fusion partners are left off.
UniProt Q9BYR7: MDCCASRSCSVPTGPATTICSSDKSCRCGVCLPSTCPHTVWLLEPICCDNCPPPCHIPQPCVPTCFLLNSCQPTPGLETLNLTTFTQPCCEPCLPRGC
UniProt P09022: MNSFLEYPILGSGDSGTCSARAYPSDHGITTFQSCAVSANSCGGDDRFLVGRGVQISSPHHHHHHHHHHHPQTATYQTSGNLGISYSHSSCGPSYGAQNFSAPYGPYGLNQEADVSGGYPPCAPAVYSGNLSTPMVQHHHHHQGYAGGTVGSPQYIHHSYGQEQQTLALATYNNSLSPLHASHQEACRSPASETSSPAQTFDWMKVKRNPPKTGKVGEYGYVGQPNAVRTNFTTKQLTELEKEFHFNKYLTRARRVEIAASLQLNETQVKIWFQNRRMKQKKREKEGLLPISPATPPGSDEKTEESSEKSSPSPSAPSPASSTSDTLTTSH

[2] = biological target: keratin associated protein 3-2 (human) (UniProt Q9BYR7)
[3] = biological target: T2, chromosome 1 open reading frame 94 (human) (UniProt Q6P1W5)
T2 sequence: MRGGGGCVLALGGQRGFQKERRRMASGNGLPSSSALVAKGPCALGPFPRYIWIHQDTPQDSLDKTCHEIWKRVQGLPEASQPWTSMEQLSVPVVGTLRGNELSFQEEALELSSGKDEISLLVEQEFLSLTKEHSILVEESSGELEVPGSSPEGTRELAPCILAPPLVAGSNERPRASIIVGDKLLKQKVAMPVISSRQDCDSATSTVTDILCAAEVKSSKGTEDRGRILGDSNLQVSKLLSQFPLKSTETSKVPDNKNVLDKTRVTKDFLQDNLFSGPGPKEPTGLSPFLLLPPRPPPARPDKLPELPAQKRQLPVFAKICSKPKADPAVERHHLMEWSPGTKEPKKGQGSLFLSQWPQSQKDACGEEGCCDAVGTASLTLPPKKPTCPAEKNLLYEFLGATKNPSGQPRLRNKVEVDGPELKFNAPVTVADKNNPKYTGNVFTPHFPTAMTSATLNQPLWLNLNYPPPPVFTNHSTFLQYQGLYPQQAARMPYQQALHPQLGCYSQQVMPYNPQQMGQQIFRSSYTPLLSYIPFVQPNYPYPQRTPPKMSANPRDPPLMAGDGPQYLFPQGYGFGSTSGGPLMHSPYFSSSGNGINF

[4] = biological target: T3, mannosyl (α-1,6-)-glycoprotein β-1,6-N-acetyl-glucosaminyltransferase, isozyme B (human) (UniProt Q3V5L5)
T3 sequence: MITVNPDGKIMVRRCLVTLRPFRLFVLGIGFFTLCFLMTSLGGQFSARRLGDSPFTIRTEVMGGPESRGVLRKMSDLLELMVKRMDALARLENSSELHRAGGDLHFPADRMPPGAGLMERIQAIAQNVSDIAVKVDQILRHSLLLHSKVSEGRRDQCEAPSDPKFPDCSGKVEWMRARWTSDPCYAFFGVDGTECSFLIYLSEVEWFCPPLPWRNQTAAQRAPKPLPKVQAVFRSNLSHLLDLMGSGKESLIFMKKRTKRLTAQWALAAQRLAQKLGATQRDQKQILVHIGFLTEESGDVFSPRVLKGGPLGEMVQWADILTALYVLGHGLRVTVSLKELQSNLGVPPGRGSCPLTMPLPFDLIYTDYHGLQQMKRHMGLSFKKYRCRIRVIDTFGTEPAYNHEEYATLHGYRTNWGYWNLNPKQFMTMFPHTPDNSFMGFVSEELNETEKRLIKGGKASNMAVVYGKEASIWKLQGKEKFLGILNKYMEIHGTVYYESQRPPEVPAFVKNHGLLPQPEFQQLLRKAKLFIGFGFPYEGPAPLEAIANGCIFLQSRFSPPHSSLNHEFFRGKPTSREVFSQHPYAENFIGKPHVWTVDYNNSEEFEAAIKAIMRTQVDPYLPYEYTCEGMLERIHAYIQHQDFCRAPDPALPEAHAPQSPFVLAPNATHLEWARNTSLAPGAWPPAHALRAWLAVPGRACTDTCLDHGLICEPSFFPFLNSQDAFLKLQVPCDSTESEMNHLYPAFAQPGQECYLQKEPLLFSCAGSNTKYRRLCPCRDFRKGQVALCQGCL

[5] = biological target: T4, sprouty homolog 1 (human) (UniProt O43609)
T4 sequence: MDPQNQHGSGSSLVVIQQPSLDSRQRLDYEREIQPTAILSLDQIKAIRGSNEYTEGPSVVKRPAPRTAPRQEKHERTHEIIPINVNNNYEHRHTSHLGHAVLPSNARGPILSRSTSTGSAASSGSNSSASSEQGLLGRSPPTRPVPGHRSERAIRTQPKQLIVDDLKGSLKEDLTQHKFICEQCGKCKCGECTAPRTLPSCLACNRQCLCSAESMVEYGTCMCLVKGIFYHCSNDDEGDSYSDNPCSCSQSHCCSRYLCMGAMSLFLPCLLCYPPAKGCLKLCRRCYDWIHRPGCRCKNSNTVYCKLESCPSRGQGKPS

Measured: binding

FLAG-Hoxa1 (from UniProt P09022 1-331)
binds: [1] | [2] | [3] | [4] | [5]
